Data as given in PubChem BioAssay AID686943 (Drosophila RNAi Screening Center, 2013).
The screen tested about 23,000 reagents; below is a random part of those that have a named target and a result. 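Extra replicates exist only for a retested subset of genes; insulin dose and duration not given; both raised and lowered dpERK matter.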 Not all columns of the deposit are shown. Not stated in the record: the amount of reagent, the time to read-out.

Assay: 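Knockdowns that increase or decrease active ERK after insulin receptor stimulation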 (primary screen)
Cell system: Drosophila S2R+ haemocyte-like cells expressing YFP-tagged ERK (Rolled)
Knock-down reagent: long dsRNA against Drosophila genes
Conditions: insulin stimulation versus unstimulated cells; dose and duration not given
Measurement: 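Per-plate z-scores of phospho-ERK immunostaining normalised to YFP-tagged ERK, measured with and without insulin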
Scale: replicate 1, z-score of dpERK with insulin: higher = more active ERK per ERK-YFP after insulin

Send2 [DRSC01906]
- replicate 1, z-score of dpERK with insulin: 0.79

rt [DRSC11391]
- replicate 1, z-score of dpERK with insulin: 0.24

aspr [DRSC20689]
- replicate 1, z-score of dpERK with insulin: -0.05

aspr [DRSC20690]
- replicate 1, z-score of dpERK with insulin: 0.11

CG40439 [DRSC22707]
- replicate 1, z-score of dpERK with insulin: 0.18

CG30083 [DRSC05572]
- replicate 1, z-score of dpERK with insulin: -0.97

CG3108 [DRSC18280]
- replicate 1, z-score of dpERK with insulin: 0.63

Rh7 [DRSC10529]
- replicate 1, z-score of dpERK with insulin: -0.54

Gmap [DRSC19988]
- replicate 1, z-score of dpERK with insulin: -0.98

Gmap [DRSC20057]
- replicate 1, z-score of dpERK with insulin: 0.4

CG5376 [DRSC15782]
- replicate 1, z-score of dpERK with insulin: 0.27

CG4714 [DRSC06883]
- replicate 1, z-score of dpERK with insulin: 0.15

CG15252 [DRSC17981]
- replicate 1, z-score of dpERK with insulin: -1.11

CG11069 [DRSC14289]
- replicate 1, z-score of dpERK with insulin: -0.01

CG14212 [DRSC19568]
- replicate 1, z-score of dpERK with insulin: 0.69

Cht2 [DRSC08650]
- replicate 1, z-score of dpERK with insulin: 0.08

Wdr59 [DRSC02771]
- replicate 1, z-score of dpERK with insulin: 1.05

CG30398 [DRSC03891]
- replicate 1, z-score of dpERK with insulin: -0.55

yellow-g2 [DRSC08338]
- replicate 1, z-score of dpERK with insulin: 0.38

GstD4 [DRSC16685]
- replicate 1, z-score of dpERK with insulin: 0.95

CG15812 [DRSC08479]
- replicate 1, z-score of dpERK with insulin: -1.39
